Earlier results, collected in patent publication US20190008779A1, “GEMCABENE COMPOSITIONS AND METHODS OF USE THEREOF” (GEMPHIRE THERAPEUTICS INC., priority 2017, published 2019).

Protein sequences, listed by entry. Tags and fused reporters are not part of them. Lines headed by an entry give the natural chain unless they say otherwise; changes in a name come on top.
UniProt Q9Y6L6: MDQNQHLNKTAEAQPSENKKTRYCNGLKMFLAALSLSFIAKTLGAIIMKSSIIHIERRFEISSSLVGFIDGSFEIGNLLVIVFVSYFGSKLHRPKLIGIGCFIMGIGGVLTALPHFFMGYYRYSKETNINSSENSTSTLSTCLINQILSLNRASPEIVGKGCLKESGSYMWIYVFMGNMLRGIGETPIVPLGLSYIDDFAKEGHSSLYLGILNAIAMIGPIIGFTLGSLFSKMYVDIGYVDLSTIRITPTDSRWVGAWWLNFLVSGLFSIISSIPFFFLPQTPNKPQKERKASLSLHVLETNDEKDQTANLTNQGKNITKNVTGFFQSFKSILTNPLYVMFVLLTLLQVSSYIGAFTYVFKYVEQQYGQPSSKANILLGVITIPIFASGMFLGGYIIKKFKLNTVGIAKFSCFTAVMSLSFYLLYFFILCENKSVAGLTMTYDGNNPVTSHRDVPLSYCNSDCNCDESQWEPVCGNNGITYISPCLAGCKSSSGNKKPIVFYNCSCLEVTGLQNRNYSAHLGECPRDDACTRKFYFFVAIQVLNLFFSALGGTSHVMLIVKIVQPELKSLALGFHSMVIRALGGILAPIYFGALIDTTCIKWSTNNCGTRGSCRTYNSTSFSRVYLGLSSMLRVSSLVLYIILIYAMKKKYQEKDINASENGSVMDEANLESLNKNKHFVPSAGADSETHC
UniProt P08183, whole entry: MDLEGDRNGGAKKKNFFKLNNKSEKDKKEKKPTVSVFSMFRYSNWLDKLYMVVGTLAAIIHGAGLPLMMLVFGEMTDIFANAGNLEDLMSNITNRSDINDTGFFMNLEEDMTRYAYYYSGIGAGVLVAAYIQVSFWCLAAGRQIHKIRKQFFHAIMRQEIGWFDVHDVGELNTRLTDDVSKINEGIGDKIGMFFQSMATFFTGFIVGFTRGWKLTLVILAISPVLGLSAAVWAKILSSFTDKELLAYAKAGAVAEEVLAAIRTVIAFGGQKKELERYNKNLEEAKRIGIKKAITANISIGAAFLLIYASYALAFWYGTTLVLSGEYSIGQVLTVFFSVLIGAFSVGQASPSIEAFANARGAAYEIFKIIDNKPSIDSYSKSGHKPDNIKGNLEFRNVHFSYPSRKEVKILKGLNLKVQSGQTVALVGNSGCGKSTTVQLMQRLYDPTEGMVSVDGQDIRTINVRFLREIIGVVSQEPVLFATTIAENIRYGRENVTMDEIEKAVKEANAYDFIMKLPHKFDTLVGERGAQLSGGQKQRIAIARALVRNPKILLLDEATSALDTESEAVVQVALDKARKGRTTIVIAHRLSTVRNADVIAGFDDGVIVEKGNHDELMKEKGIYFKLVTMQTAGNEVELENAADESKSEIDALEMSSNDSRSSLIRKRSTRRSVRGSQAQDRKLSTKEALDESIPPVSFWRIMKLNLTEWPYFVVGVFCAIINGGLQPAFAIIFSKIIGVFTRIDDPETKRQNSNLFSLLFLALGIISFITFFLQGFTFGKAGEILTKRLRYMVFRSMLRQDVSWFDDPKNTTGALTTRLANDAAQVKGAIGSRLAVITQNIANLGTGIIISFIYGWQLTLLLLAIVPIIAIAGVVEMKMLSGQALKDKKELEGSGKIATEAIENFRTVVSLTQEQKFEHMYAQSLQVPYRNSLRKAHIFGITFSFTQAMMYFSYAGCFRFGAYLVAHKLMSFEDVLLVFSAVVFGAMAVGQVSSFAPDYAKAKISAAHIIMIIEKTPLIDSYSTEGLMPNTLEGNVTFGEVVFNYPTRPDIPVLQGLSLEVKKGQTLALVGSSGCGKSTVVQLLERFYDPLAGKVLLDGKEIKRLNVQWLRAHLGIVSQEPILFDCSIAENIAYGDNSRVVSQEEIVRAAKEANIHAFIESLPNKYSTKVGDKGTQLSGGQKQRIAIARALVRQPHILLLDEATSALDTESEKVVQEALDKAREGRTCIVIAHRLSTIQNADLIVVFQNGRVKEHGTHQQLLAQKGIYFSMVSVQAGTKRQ

What was measured:
[1] = molecular target: OATP1B1 (Homo sapiens, UniProt Q9Y6L6); conditions: cited from earlier work
[2] = molecular target: P-glycoprotein (P-gp) (Homo sapiens, UniProt P08183); conditions: cited from earlier work

## CC(C)c1c(C(=O)Nc2ccccc2)c(-c2ccccc2)c(-c2ccc(F)cc2)n1CC[C@@H](O)C[C@@H](O)CC(=O)O [Atorvastatin, atorvastatin]
[1]
  substrate of organic anion transporting polypeptide (OATP1B1): substrate
[2]
  substrate of the efflux transporter P-glycoprotein (P-gp): substrate
